Our source for the binding values is patent US20250075002A1.

Protein sequences, listed by entry. Tags and fused reporters are not part of them. Lines headed by an entry give the natural chain unless they say otherwise; changes in a name come on top.
UniProt O75015: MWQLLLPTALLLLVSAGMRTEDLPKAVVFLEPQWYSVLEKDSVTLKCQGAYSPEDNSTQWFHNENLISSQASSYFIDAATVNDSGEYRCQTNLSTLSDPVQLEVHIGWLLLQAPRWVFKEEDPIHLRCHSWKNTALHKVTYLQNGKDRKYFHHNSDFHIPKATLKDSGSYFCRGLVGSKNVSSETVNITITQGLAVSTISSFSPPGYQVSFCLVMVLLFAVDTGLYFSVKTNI

Test [1] addresses human CD16B (NA1) on NK92mi cells (human) (UniProt O75015). Briefly: FACS, NK92mi/CD16B (NA1) cells, Alexa Fluor 647 anti-human IgG Fc. A general note: In flow cytometry, cells or beads pass a laser one at a time.
The target of test [2] is human CD16B (NA2) on NK92mi cells (human) (UniProt O75015). Briefly: FACS, NK92mi/CD16B (NA2) cells, Alexa Fluor 647 anti-human IgG Fc.
For test [3], the target named is human CD16B-His6 (NA1) (human) (UniProt O75015). Briefly: condition: one concentration (paragraph 202 prints 1 mg/ml); antigen ELISA, coated Human CD16B (NA1), HRP anti-human IgG. Background: ELISA stands for enzyme-linked immunosorbent assay.
For test [4], the target named is human CD16B-His6 (NA2) (human) (UniProt O75015). The experiment in a line: condition: one concentration (paragraph 202 prints 1 mg/ml); antigen ELISA, coated Human CD16B (NA2), HRP anti-human IgG.

These are yes or no findings as the source states them, for the method shown.

B1: LS21 (scFv)
scFv: EVQLVQSGAEVKKPGESLKVSCKASGYTFTSYYMHWVRQAPGQGLEWMGIINPSGGSTSYAQKFQGRVTMTRDTSTSTVYMELSSLRSEDTAVYYCARGSAYYYDFADYWGQGTLVTVSSGGGGSGGGGSGGGGSQPVLTQPSSVSVAPGQTATISCGGHNIGSKNVHWYQQRPGQSPVLVIYQDNKRPSGIPERFSGSNSGNTATLTISGTQAMDEADYYCQVWDNYSVLFGGGTKLTVL
As for B1, the binding result is recorded as “no binding (tested: 50 ug/ml)” in test [1], “no binding (tested: 50 ug/ml)” in test [2], “no binding” in test [3] and “no binding” in test [4].
